Test results published in PubChem BioAssay AID445 (National Center for Advancing Translational Sciences (NCATS), 2006).
Some of the results follow. Further columns of the screen follow, without active or inactive calls. Most of these compounds were active or inconclusive in the main read-out, so they are no random draw. Words in brackets tell the shape of the fitted curve; partial curves, single points and poor fits give uncertain potencies.

Test: IkB Signaling
Settings: ABC-DLBCL IkBa-CBG/CBR dual luciferase ratio (green luciferase fused to IkBa over red control in OCI-Ly3 lymphoma cells), 4 h; measured here: control luc red channel unless noted
Outline: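 Luminescence ratio of IκBα-fused green versus native red beetle luciferase in OCI-Ly3 cells, 4 h post-doxycycline with compound; red signal alone, scaled from basal (0%) to zero light (-100%), flagged nonspecific or cytotoxic effects.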

SMILES	AC50
O=C1Nc2ccc(S(=O)(=O)NCCC3=CCCCC3)c3cccc1c23	7.94 µM [falling, full curve, poor fit]
CCOc1ccc(CNC(=O)C2CCN(C3=NS(=O)(=O)C(c4ccc(C)cc4)=C3CC)CC2)cc1	25.1 µM [falling, single point]
CCN(CC)CC(=O)c1c[nH]c2ccccc12	39.8 µM [falling, single point]
COc1ccccc1N1CSC2=C(C#N)C(c3ccc(SC)cc3)CC(=O)N2C1 (stereo not given)	5.01 µM [falling, full curve]
CC1=C(C(=O)OC2CCCCCCC2)C(c2ccc(O)cc2)NC(=O)N1 (stereo not given)	15.8 µM [falling, partial curve]
OCc1cc([C@@H](O)CNCCCCCCOCCCCc2ccccc2)ccc1O	39.8 µM [falling, partial curve]
CCOC(=O)c1ccc(N2C(=O)c3n[nH]c(-c4cccs4)c3C2c2ccc(O)c(OC)c2)cc1 (stereo not given)	12.6 µM [falling, partial curve]
CCN(C(=O)c1cc2c(s1)-c1c(C)cccc1OC2)c1cc(C)ccc1C	0.794 µM [falling, full curve]
CCOc1ccc2oc(=O)cc(CN3CCN(c4ccc(OC)cc4)CC3)c2c1	39.8 µM [falling, single point]
CCOc1cc(S(=O)(=O)n2cc(-c3ccc(F)cc3)c(N)n2)cc(OCC)c1OCC	6.31 µM [falling, partial curve]
COc1ccc(OC)c(NC(=O)Cn2c(=O)oc3cc(S(=O)(=O)NCc4ccccc4)ccc32)c1	0.794 µM [rising, full curve]
CCn1c(CC(=O)Nc2cccc(OC)c2)nnc1SCC(=O)N1CCN(c2ccccc2)CC1	12.6 µM [falling, partial curve]
O=C(NC1CC(=O)N(c2ccccc2)C1)c1ccc(S(=O)(=O)N2CCOCC2)cc1 (stereo not given)	7.94 µM [falling, single point]
c1ccc(-c2cn(-c3ccccc3)c3ncnc(N4CCN(c5ccccc5)CC4)c23)cc1	20 µM [falling, single point]
COc1ccc(OC)c(NC(=O)CSc2n[nH]c(-c3ccccc3Cl)n2)c1	31.6 µM [falling, single point]
COc1ccccc1N1CCN(c2ccc3cc(S(=O)(=O)N4CCCCC4)ccc3n2)CC1	39.8 µM [falling, single point]
O=C(NC1CCCC1)C(c1ccsc1)N(Cc1ccco1)C(=O)Cc1cccs1 (stereo not given)	6.31 µM [rising, full curve, poor fit] [measured here: IkB-luc green channel]
CC1CCN(C(=O)CSc2c3c(nc4cc(Cl)ccc24)CCCC3)CC1	25.1 µM [falling, partial curve]
c1ccc(-c2oc3ncnc(NCCCn4ccnc4)c3c2-c2ccccc2)cc1	10 µM [falling, partial curve]
COc1ccc(Br)c2c1-c1nc(NC(=O)c3cccc(C)c3)sc1C2	3.98 µM [falling, partial curve]

At a glance, 2 of the compounds above:
SMILES	AC50
OCc1cc([C@@H](O)CNCCCCCCOCCCCc2ccccc2)ccc1O	39.8 µM [falling, partial curve]
CCOC(=O)c1ccc(N2C(=O)c3n[nH]c(-c4cccs4)c3C2c2ccc(O)c(OC)c2)cc1 (stereo not given)	12.6 µM [falling, partial curve]

Carrying on.

SMILES	AC50
CN(C)S(=O)(=O)c1ccc2c(c1)c(=O)c(C(=O)N1CCN(c3cccc(Cl)c3)CC1)cn2C	0.158 µM [falling, full curve]
S=c1[nH]nc(COc2ccc(Cl)cc2)o1	20 µM [falling, single point]
CCOc1ccccc1NC(=O)CSC1=Nc2ccccc2C2=NC(CC(=O)NC3CCCCC3)C(=O)N12 (stereo not given)	3.98 µM [falling, partial curve]
CCOc1ccc(CN2C(=O)c3ccccc3Sc3ccc(C(=O)N4CCN(C)CC4)cc32)cc1	3.98 µM [falling, partial curve]
CCC(CC)C(=O)Nc1c(C(=O)N2CCN(c3ccccc3F)CC2)oc2ccccc12	10 µM [falling, partial curve]
Cc1oc(-c2ccccc2F)nc1CS(=O)(=O)CC(=O)N1CCN(c2cccc(C(F)(F)F)c2)CC1	3.98 µM [falling, full curve]
N#Cc1ccc(C(=O)Nc2ccc(Cl)c(-c3nc4cc(Cl)ccc4o3)c2)c(F)c1	7.94 µM [falling, full curve]
COc1cccc(C(=O)Nc2ccc(C)cc2)c1	25.1 µM [falling, partial curve]
Cc1ccc(NC(=O)c2cccc(NC(=O)N3CCSc4ncccc43)c2)cc1Cl	2.51 µM [falling, full curve]
COc1ccc(N2CCN(C(=O)Cn3ncc4c3-c3cc(C)ccc3OC4)CC2)cc1	5.01 µM [falling, partial curve]
COc1ccc(F)cc1S(=O)(=O)NCCc1csc(-c2ccc(Cl)cc2)n1	10 µM [falling, partial curve, poor fit]
O=C(NCc1ccco1)Nc1ccc2nsnc2c1	12.6 µM [falling, partial curve]
Cc1c(C(=O)NCc2ccc3c(c2)OCO3)oc2ccccc12	12.6 µM [falling, partial curve]
CCCC(=O)NCCc1nc2ccccc2n1Cc1c(F)cccc1Cl	25.1 µM [falling, partial curve, poor fit]
O=C(COC(=O)c1n[nH]c2ccccc12)Nc1ccc(S(=O)(=O)N2CCCC2)cc1	10 µM [falling, partial curve]
COc1ccc(-n2c(=O)c3ccccc3n(Cc3ccccc3C)c2=O)c(OC)c1	10 µM [falling, partial curve]
CC(=O)Nc1nonc1-c1nnc(SCC(=O)Nc2ccc(C)c(Cl)c2)n1-c1ccccc1	15.8 µM [falling, partial curve]
CCOc1ccc(C(=O)c2cnc3ccc(Cl)cc3c2S(=O)(=O)c2ccc(C)cc2)cc1	0.251 µM [falling, full curve]
Cc1ccc(-n2nc(CO)c(C(=O)NCCCc3ccccc3)n2)cc1	15.8 µM [falling, partial curve]
O=C(Nc1ccccc1)N1CCC(c2ccccc2)C1 (stereo not given)	2.51 µM [falling, partial curve]
